# Assay results published in publication PMC5996148.
# Where “and” joins values, the source holds several entries; their conditions need not be identical. Equal entries are not always repeated. The list shows a part of the results. For some assays here: The exact form of the protein is not confirmed.
# Legend:
# Experiment in all cases: protein microarray (ProtoArray v5.0), streptavidin-Alexa Fluor 647
# Conditions in all cases: 3'-biotin; 20 mM Tris (pH 7.5), 5 mM MgCl2, 100 mM KCl, 0.1% Tween-20, A/T-rich and random oligonucleotide blockers; temperature not stated; high values mean tight binding
# [1] = test system: V-type proton ATPase subunit e 1 (human)
# VAC14 (human) = test system: VAC14 (human)
# VAPA (human) = test system: VAPA (human)
# VEGFA (human) = test system: VEGFA (human)
# VPS25 (human) = test system: VPS25 (human)
# VPS29 (human) = test system: VPS29 (human)
# VPS33B (human) = test system: VPS33B (human)
# VPS36 (human) = test system: VPS36 (human)
# VPS37A (human) = test system: VPS37A (human)
# [2] = test system: Vesicle-trafficking protein SEC22b (human)
# [3] = test system: Visinin-like protein 1 (human)
# [4] = test system: Voltage-dependent L-type calcium channel subunit beta-1 (human)
# [5] = test system: WAS protein family homolog 1 (human)
# WBP2 = target: T1, WBP2 (UniProt Q969T9)
# T1 sequence: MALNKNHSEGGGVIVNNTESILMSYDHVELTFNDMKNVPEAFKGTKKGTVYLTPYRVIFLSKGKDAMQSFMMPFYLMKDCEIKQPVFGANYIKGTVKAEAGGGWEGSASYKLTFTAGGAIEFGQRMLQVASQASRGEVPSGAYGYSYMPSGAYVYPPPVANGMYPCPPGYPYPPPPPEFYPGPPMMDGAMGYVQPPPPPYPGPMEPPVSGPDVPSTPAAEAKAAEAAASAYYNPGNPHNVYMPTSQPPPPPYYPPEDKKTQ
# [6] = test system: WD repeat-containing protein 55 (human)
# WDR1 (human) = test system: WDR1 (human)
# WDR18 = target: T2, WDR18 (UniProt Q9BV38)
# T2 sequence: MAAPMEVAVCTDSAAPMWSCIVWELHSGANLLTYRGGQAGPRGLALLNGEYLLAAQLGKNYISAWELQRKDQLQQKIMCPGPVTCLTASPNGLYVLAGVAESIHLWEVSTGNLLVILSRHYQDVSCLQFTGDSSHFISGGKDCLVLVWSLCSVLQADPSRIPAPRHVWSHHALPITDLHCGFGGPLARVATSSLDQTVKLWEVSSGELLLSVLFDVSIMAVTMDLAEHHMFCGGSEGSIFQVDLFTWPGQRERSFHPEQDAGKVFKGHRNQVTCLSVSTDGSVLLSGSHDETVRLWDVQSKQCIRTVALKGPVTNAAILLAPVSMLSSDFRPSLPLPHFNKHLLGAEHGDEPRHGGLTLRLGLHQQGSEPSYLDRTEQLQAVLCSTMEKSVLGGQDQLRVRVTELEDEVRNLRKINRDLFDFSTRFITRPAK
# WDR24 (human) = test system: WDR24 (human)
# WDR34 (human) = test system: WDR34 (human)
# WDR4 (human) = test system: WDR4 (human)
sequence,measurement,setting,value
GGTGACAGGGGTATGGGGAGGGG [G4-2 biotinylated (Ct1)],binding signal,[1],-0.381 z-score
same,binding signal,VAC14 (human),-0.39 z-score
same,binding signal,VAPA (human),-0.385 z-score
same,binding signal,VEGFA (human),-0.369 z-score
same,binding signal,VPS25 (human),-0.409 z-score
same,binding signal,VPS29 (human),-0.38 z-score and -0.388 z-score
same,binding signal,VPS33B (human),-0.375 z-score
same,binding signal,VPS36 (human),-0.398 z-score
same,binding signal,VPS37A (human),-0.39 z-score
same,binding signal,[2],-0.381 z-score
same,binding signal,[3],-0.384 z-score
same,binding signal,[4],3.48 z-score
same,binding signal,[5],-0.4 z-score
same,binding signal,WBP2,-0.385 z-score
same,binding signal,[6],-0.368 z-score
same,binding signal,WDR1 (human),-0.38 z-score
same,binding signal,WDR18,-0.386 z-score
same,binding signal,WDR24 (human),-0.37 z-score
same,binding signal,WDR34 (human),-0.378 z-score
same,binding signal,WDR4 (human),-0.394 z-score

# Reprinted at random: two entries already listed, in no set order.
sequence,measurement,setting,value
GGTGACAGGGGTATGGGGAGGGG [G4-2 biotinylated (Ct1)],binding signal,VPS37A (human),-0.39 z-score
same,binding signal,VEGFA (human),-0.369 z-score
